According to publication PMC8068362:
Results are given in words; binding and its absence hold for the method and conditions named. In cells and extracts the contact can be indirect. Some results given as binding are weak or reduced against the parent protein; the word gives no strength. For some assays here: Where a sequence is shown, tags or fusion partners need not be part of it.

Protein sequences, listed by entry. Tags and fused reporters are not part of them.
UniProt Q9S775: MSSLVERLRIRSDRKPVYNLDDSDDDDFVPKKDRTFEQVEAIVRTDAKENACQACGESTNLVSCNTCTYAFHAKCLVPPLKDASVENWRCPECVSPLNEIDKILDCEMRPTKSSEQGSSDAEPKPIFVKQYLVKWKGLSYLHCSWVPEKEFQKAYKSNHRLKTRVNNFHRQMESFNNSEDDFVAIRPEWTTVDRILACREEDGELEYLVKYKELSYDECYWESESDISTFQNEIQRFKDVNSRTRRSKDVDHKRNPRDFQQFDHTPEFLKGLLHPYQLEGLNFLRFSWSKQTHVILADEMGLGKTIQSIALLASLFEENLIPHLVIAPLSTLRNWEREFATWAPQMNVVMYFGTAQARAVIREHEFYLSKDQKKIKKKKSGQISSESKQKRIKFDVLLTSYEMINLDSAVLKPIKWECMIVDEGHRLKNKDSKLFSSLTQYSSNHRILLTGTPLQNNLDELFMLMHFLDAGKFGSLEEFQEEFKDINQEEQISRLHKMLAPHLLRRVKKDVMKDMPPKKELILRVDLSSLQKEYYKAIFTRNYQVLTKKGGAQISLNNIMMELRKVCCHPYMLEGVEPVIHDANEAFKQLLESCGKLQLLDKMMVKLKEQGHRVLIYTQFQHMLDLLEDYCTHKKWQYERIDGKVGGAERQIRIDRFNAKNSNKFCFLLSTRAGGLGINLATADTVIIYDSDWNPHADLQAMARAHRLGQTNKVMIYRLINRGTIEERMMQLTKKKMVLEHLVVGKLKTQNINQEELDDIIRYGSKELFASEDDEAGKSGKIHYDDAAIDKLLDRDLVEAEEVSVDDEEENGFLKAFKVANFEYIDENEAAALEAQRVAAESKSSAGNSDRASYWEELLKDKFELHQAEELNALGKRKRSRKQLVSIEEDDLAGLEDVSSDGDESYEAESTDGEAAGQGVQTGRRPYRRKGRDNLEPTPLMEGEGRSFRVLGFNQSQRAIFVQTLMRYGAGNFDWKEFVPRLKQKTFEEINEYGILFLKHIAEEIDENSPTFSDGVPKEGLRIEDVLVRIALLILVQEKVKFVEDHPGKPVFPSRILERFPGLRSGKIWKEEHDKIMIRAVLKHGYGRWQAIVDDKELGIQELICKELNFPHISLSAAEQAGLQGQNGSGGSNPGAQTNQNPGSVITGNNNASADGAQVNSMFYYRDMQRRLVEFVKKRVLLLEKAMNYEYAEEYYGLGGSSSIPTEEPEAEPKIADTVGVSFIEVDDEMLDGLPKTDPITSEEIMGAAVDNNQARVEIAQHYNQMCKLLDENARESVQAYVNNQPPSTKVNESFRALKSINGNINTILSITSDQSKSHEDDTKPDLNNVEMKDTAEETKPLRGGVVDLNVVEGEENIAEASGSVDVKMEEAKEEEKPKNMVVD

Columns and labels:
[1] = target: Myc-PKL (PICKLE) (Arabidopsis thaliana) (UniProt Q9S775); test: co-IP; protein extracts of Arabidopsis protoplasts transfected with 35S::HA-RBR1 and 35S::myc-PKL; immunoprecipitated with anti-myc, blot with anti-HA; extraction buffer with 150 mM NaCl, 4 °C
[2] = target: YFPC-fPKL (full-length PKL) (Arabidopsis thaliana) (UniProt Q9S775); test: split reporter; BiFC with YFPN and YFPC fusions coexpressed in suspension-derived Arabidopsis protoplasts; confocal microscopy about 16 h post-transformation

Binder	binding [1]	binding [2]
HA-RBR1 (RETINOBLASTOMA-RELATED 1) (protein, UniProt Q9LKZ3 1-1013) MEEVQPPVTPPIEPNGKRSEASLLDICEKVLSLDGSTCDEALKLFTETKRILSASMSNIGSGTREEVERFWFAFILYSVKRLSVRKEADGLSVSGDNEFNLCQILRALKLNIVDFFKELPQFVVKAGSVLGELYGADWENRLQAKEVQANFVHLSLLSKYYKRGFREFFLTYDANAEKNSANSSTYLLDSYRFGWLLFLALRNHAFSRFKDLVTCSNGVVSILAILIIHVPCRFRNFSIQDSSRFVKKGDKGVDLVASLCKIYDASEDELRIVIDKANNLVETILKKKPSPASECQTDKLDNIDPDGLTYFEDLLEETSISTSLITLEKDYYDGKGELDERVFINEEDSLLGSGSLSAGAVNITGVKRKIDALSSPARTFISPLSPHKSPAAKTNGISGATKLAATPVSTAMTTAKWLRTVISPLLPKPSPGLEHFLKSCDRDITNDVTRRAHIILEAIFPNSSLGAQCGGGSLQAVDLMDDIWAEQRRLEACKLYYRVLEAMCKAEAQILHANNLNSLLTNERFHRCMLACSAELVLATHKTITMLFPAVLERTGITAFDLSKVIESFIRHEDSLPRELRRHLNSLEERLLESMVWEKGSSMYNSLIVARPSLALEINQLGLLAEPMPSLDAIAALINFSDGANHASSVQKHETCPGQNGGIRSPKRLCTDYRSILVERNSFTSPVKDRLLALGNVKSKMLPPPLQSAFASPTRPNPGGGGETCAETGINIFFTKINKLAAVRINGMVERLQLSQQIRESVYCFFQHVLAQRTSLLFSRHIDQIILCCFYGVAKISQMSLTFREIIYNYRKQPQCKPLVFRSVYVDALQCRRQGRIGPDHVDIITFYNEIFIPAVKPLLVELGPVRNDRAVEANNKPEGQCPGSPKVSVFPSVPDMSPKKVSAVHNVYVSPLRGSKMDALISHSTKSYYACVGESTHAYQSPSKDLSAINNRLNNSSSNRKRTLNFDAEAGMVSDSMVANSLNLQNQNQNQNGSDASSSGGAAPLKTEPTDS	binds	–
YFPN-RBR1 (protein, UniProt Q9LKZ3 1-1013) MEEVQPPVTPPIEPNGKRSEASLLDICEKVLSLDGSTCDEALKLFTETKRILSASMSNIGSGTREEVERFWFAFILYSVKRLSVRKEADGLSVSGDNEFNLCQILRALKLNIVDFFKELPQFVVKAGSVLGELYGADWENRLQAKEVQANFVHLSLLSKYYKRGFREFFLTYDANAEKNSANSSTYLLDSYRFGWLLFLALRNHAFSRFKDLVTCSNGVVSILAILIIHVPCRFRNFSIQDSSRFVKKGDKGVDLVASLCKIYDASEDELRIVIDKANNLVETILKKKPSPASECQTDKLDNIDPDGLTYFEDLLEETSISTSLITLEKDYYDGKGELDERVFINEEDSLLGSGSLSAGAVNITGVKRKIDALSSPARTFISPLSPHKSPAAKTNGISGATKLAATPVSTAMTTAKWLRTVISPLLPKPSPGLEHFLKSCDRDITNDVTRRAHIILEAIFPNSSLGAQCGGGSLQAVDLMDDIWAEQRRLEACKLYYRVLEAMCKAEAQILHANNLNSLLTNERFHRCMLACSAELVLATHKTITMLFPAVLERTGITAFDLSKVIESFIRHEDSLPRELRRHLNSLEERLLESMVWEKGSSMYNSLIVARPSLALEINQLGLLAEPMPSLDAIAALINFSDGANHASSVQKHETCPGQNGGIRSPKRLCTDYRSILVERNSFTSPVKDRLLALGNVKSKMLPPPLQSAFASPTRPNPGGGGETCAETGINIFFTKINKLAAVRINGMVERLQLSQQIRESVYCFFQHVLAQRTSLLFSRHIDQIILCCFYGVAKISQMSLTFREIIYNYRKQPQCKPLVFRSVYVDALQCRRQGRIGPDHVDIITFYNEIFIPAVKPLLVELGPVRNDRAVEANNKPEGQCPGSPKVSVFPSVPDMSPKKVSAVHNVYVSPLRGSKMDALISHSTKSYYACVGESTHAYQSPSKDLSAINNRLNNSSSNRKRTLNFDAEAGMVSDSMVANSLNLQNQNQNQNGSDASSSGGAAPLKTEPTDS	–	binds
